The values that follow come from PMC8534263.

The chains behind the UniProt entries cited, without tags or fusion partners.
UniProt A0A8I3NBF9: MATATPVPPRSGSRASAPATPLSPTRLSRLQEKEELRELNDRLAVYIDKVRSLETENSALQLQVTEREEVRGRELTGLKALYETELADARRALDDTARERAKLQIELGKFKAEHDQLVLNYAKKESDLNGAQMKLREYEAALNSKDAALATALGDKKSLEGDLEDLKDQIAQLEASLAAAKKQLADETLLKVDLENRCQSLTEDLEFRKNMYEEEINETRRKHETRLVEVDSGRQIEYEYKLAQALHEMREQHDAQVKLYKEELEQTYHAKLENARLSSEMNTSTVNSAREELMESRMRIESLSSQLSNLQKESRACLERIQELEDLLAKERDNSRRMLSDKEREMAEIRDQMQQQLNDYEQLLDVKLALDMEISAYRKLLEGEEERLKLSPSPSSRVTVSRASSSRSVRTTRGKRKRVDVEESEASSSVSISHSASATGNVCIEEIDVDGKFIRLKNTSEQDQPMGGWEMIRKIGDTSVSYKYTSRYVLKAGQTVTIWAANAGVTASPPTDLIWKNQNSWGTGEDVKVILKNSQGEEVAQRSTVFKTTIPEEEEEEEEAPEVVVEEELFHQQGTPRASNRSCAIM

Assay [1] has as its target T1, Zonula occludens 2 (ZO-2) (dog (endogenous in MDCK)) (UniProt Q95168).
T1 sequence: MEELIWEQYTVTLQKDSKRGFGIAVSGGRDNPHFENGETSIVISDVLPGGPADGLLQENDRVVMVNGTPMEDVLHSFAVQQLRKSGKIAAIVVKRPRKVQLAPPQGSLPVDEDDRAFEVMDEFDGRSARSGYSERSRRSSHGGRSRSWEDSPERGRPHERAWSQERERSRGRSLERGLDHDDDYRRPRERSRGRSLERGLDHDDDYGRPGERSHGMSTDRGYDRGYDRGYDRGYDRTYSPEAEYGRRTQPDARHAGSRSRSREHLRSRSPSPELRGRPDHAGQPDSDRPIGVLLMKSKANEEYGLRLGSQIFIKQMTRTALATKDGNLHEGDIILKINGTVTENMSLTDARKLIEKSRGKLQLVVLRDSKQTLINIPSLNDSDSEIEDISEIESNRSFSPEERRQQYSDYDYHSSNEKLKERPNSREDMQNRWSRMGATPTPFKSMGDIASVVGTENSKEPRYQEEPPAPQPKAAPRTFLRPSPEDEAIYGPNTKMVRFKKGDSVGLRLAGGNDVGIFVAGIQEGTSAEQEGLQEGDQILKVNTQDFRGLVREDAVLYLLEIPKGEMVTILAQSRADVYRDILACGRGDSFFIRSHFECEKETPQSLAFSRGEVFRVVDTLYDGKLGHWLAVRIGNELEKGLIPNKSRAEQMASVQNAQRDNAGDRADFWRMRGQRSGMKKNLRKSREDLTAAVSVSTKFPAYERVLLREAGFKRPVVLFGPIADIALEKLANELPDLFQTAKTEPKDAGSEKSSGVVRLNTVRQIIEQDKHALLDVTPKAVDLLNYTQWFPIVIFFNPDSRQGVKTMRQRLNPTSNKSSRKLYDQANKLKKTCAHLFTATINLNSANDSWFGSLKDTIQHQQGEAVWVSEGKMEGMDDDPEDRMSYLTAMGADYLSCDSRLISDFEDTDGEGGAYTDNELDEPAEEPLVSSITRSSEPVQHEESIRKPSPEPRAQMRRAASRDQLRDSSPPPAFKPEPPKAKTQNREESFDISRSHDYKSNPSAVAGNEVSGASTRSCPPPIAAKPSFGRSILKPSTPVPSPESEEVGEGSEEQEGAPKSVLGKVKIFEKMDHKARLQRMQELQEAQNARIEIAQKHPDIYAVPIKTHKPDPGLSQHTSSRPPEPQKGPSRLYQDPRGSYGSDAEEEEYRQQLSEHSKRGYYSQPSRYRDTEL
The assay can be described thus: co-IP; immunoprecipitation of ZO-2 from sparse MDCK cells, Western blot of the partners; endogenous proteins. (In general: A western blot detects proteins with antibodies after separation by electrophoresis.)

Assay [2] deals with lamin B1 (dog (endogenous in MDCK)). The assay can be described thus: co-IP; immunoprecipitation of SUN-1 or lamin B1 from sparse MDCK cells, Western blot of ZO-2; endogenous proteins.

No constants are given. Whether binding was seen depends on the method and setting. In cells and extracts the contact can be indirect. Some binding calls cover weakened binding; strength is not graded here.

For “lamin B1 (from UniProt A0A8I3NBF9 1-586)”, the binding entry in assay [1] is reported as “binds”.

B1: Zonula occludens 2 (ZO-2) (protein, UniProt Q95168 1-1174)
chain: MEELIWEQYTVTLQKDSKRGFGIAVSGGRDNPHFENGETSIVISDVLPGGPADGLLQENDRVVMVNGTPMEDVLHSFAVQQLRKSGKIAAIVVKRPRKVQLAPPQGSLPVDEDDRAFEVMDEFDGRSARSGYSERSRRSSHGGRSRSWEDSPERGRPHERAWSQERERSRGRSLERGLDHDDDYRRPRERSRGRSLERGLDHDDDYGRPGERSHGMSTDRGYDRGYDRGYDRGYDRTYSPEAEYGRRTQPDARHAGSRSRSREHLRSRSPSPELRGRPDHAGQPDSDRPIGVLLMKSKANEEYGLRLGSQIFIKQMTRTALATKDGNLHEGDIILKINGTVTENMSLTDARKLIEKSRGKLQLVVLRDSKQTLINIPSLNDSDSEIEDISEIESNRSFSPEERRQQYSDYDYHSSNEKLKERPNSREDMQNRWSRMGATPTPFKSMGDIASVVGTENSKEPRYQEEPPAPQPKAAPRTFLRPSPEDEAIYGPNTKMVRFKKGDSVGLRLAGGNDVGIFVAGIQEGTSAEQEGLQEGDQILKVNTQDFRGLVREDAVLYLLEIPKGEMVTILAQSRADVYRDILACGRGDSFFIRSHFECEKETPQSLAFSRGEVFRVVDTLYDGKLGHWLAVRIGNELEKGLIPNKSRAEQMASVQNAQRDNAGDRADFWRMRGQRSGMKKNLRKSREDLTAAVSVSTKFPAYERVLLREAGFKRPVVLFGPIADIALEKLANELPDLFQTAKTEPKDAGSEKSSGVVRLNTVRQIIEQDKHALLDVTPKAVDLLNYTQWFPIVIFFNPDSRQGVKTMRQRLNPTSNKSSRKLYDQANKLKKTCAHLFTATINLNSANDSWFGSLKDTIQHQQGEAVWVSEGKMEGMDDDPEDRMSYLTAMGADYLSCDSRLISDFEDTDGEGGAYTDNELDEPAEEPLVSSITRSSEPVQHEESIRKPSPEPRAQMRRAASRDQLRDSSPPPAFKPEPPKAKTQNREESFDISRSHDYKSNPSAVAGNEVSGASTRSCPPPIAAKPSFGRSILKPSTPVPSPESEEVGEGSEEQEGAPKSVLGKVKIFEKMDHKARLQRMQELQEAQNARIEIAQKHPDIYAVPIKTHKPDPGLSQHTSSRPPEPQKGPSRLYQDPRGSYGSDAEEEEYRQQLSEHSKRGYYSQPSRYRDTEL
For the molecule B1, the binding result in assay [2] is reported as “binds”.
